From paper PMC6529005
For some of these results: A weaker result is weaker than the reference pair of the same experiment. For some of these results: The exact form of at least one protein or probe is not confirmed. For some of these results: Results from cells or extracts need not show a direct contact. For some of these results: At least one verdict was read from the data and is not stated in words by the source.

Key:
FMRP RGG peptide = FMRP RGG peptide (UniProt Q06787); test: EMSA; details: 5 mM KCl; EMSA: 0.5x TBE native gels at 4 C (5 mM KCl for PSD-95 RNAs), incubation at room temperature 15-20 min
FMRP S500D = FMRP S500D (UniProt Q06787); test: EMSA; details: 200 nM RNA, up to 1:2; EMSA: 0.5x TBE native gels at 4 C (5 mM KCl for PSD-95 RNAs), incubation at room temperature 15-20 min; recombinant protein; residues 1-632; protein details: C-terminal 6xHis
[1] = biological target: endogenous FMRP (mouse (E17 brain)) (UniProt P35922); test: pull-down, immunoblot; details: RIPA, mouse brain lysate; pull-down: RIPA (150 mM NaCl, 50 mM Tris pH 8.0), room temperature; protein in an extract
[2] = biological target: endogenous phosphorylated FMRP (P-FMRP) (mouse (E17 brain)) (UniProt P35922); test: pull-down, immunoblot; details: RIPA, mouse brain lysate; pull-down: RIPA (150 mM NaCl, 50 mM Tris pH 8.0), room temperature; protein in an extract

## GGGAAAAGGGAGGGAUGGG [PSD-95 Q11234]
FMRP RGG peptide
  binding result: binds

## UCCCUGAGACCCUUUAGACUGUGA [miR-125a-Mut]
FMRP S500D
  binding result: binds more weakly

## GGGAAAAGGGAGGGAUGGGUCUAGGGAGUGGGAAAUGCGGGAGGGAGGGUGGG [Bi-PSD-95 Q1-Q2]
[1]
  binding result: binds
[2]
  binding result: binds
